Record: PubChem BioAssay AID1259424 (University of Nebraska Medical Center, 2018)
Assay: 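Seek colon cancer survival genes behaving like KSR1, using a six-gene signature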 (primary screen). Cell system: human HCT116 colon cancer cells. Reagents: siRNA pool against human genes, 50 nM. Detection: 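Log2 levels of six mRNAs (branched-DNA multiplex), adjusted by two reference genes and the non-targeting median, then scored against the average KSR1 knockdown pattern as Pearson r and euclidean distance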. Direction: mean correlation with KSR1 profile: higher = expression change more like KSR1 knockdown.
In all, the deposit lists about 14,000 reagents; shown is an unselected part. 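Higher correlation or smaller distance means closer resemblance to KSR1 loss; control wells, including KSR1 knockdowns, recur on many plates.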 The numbers tell different reagents against one gene apart. Not all columns of the deposit are shown. The record does not give: the time to read-out.

mean correlation with KSR1 profile, by target and reagent
MNAT1: #1 -0.269
PRR12: #1 -0.664
FAM222B: #1 -0.292
ANKRD40CL: #1 -0.309
SCAMP2: #1 0.176
KIAA1586: #1 -0.255
DNAJC27: #1 0.649
RAB30: #1 -0.281
SH3BP1: #1 -0.294
OSBP2: #1 -0.273
NARS2: #1 0.193
PIGO: #1 -0.125
SCGB1A1: #1 -0.0782
SNPH: #1 -0.201
CHM: #1 -0.373; #2 -0.391
SUV39H2: #1 -0.0572
TUBGCP3: #1 -0.53
ZNF226: #1 -0.54
RPS28: #1 -0.743

Not a retest: 2 of the entries above.
mean correlation with KSR1 profile, by target and reagent
ZNF226: #1 -0.54
RPS28: #1 -0.743
